From publication PMC11394922
Results are given in words; binding and its absence hold for the method and conditions named. Binding seen in cells or lysates may run through a third protein. Some binding calls cover weakened binding; strength is not graded here.

Target: T1, Syndecan-1 (SDC-1), endogenous on normal murine mammary gland (NMuMG) cells (mouse (endogenous in NMuMG)) (UniProt P18828)
T1 sequence (chain, heparan sulfate (HS) chains attached to the extracellular domain): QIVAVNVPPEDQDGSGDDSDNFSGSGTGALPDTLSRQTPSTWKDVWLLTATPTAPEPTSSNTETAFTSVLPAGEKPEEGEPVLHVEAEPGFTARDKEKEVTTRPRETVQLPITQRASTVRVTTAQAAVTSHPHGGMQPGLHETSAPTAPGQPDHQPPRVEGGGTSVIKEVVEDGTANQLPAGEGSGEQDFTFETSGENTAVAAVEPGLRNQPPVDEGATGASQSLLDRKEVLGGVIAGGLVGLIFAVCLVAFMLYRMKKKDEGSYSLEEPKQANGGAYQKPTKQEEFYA
Assay: co-IP; NMuMG cells starved 4 h, incubated with 0, 50, 100 and 150 nM recombinant mouse CXCL13 for 18 h; cell lysate (500 ug) precipitated with anti-SDC-1 antibody (5 ug) overnight at 4 C and protein A/G magnetic beads (Pierce Classic Magnetic IP/Co-IP Kit); Western blot with anti-CXCL13 or rat IgG as control; only the binder purified

- binding: binds
B1: recombinant mouse CXCL13 (C-X-C motif chemokine ligand 13) (ligand, UniProt O55038 22-109)
chain: ILEAHYTNLKCRCSGVISTVVGLNIIDRIQVTPPGNGCPKTEVVIWTKMKKVICVNPRAKWLQRLLRHVQSKSLSSTPQAPVSKRRAA
